“And” between values parts separate entries of the source, which are not always exact repeats. Equal entries are not always repeated. Structures can show the parent of a compound that is named as a salt. ± gives the standard deviation of the averaged measurements. Some of the results follow. Repeats are few or missing, and single values can be far off.
Tested on: RAW 264.7
Assay: HMGB1-induced TNF-alpha production relative to HMGB1-stimulated control; higher = more TNF-alpha secretion (less inhibition)
Conditions: stimulus: HMGB1 5 ug/ml, 18 h
[1] = compound concentration: 1 ug/ml

Compound | HMGB1-induced TNF-alpha production (compound concentration: 3 uM) | HMGB1-induced TNF-alpha production [1] [%]
NC(=O)C1=CN(C2OC(COP(=O)(O)OP(=O)(O)OC[C@H]3O[C@@H](n4cnc5c(N)ncnc54)C(OP(=O)(O)O)[C@H]3O)C(O)C2O)C=CC1 (stereo not given in full) [NADPH tetrasodium] | 110% | –
CCc1c(C)[nH]c2c1C(=O)C(CN1CCOCC1)CC2 (stereo not given) [Molindone hydrochloride] | 106 ± 3.8% | –
NC(=O)CNCCC(c1ccccc1)c1ccccc1 [N-(3,3-Diphenylpropyl)glycinamide] | 90.1% | –
CC(=O)OCC1OC(Oc2cc(OC(C)=O)c3c(=O)cc(-c4ccc(OC(C)=O)c(OC(C)=O)c4)oc3c2)C(OC(C)=O)C(OC(C)=O)C1OC(C)=O (stereo not given) | – | 70.4
COc1cc(C(=O)NCCCCCC(=O)O)cc(OC)c1OC | 83.9% | –
CC1=C(C(=O)O)N2C(=O)[C@@H](NC(=O)[C@H](N)C3=CCC=CC3)[C@H]2SC1 [Cephradine] | 77.4% | –
CC1=C(C(=O)O)N2C(=O)[C@@H](NC(=O)[C@H](N)C3=CCC=CC3)[C@H]2SC1 | 90.8% | –
N[C@@H](CCC(=O)N[C@@H](CS)C(=O)NCC(=O)O)C(=O)O | 87.1% | –
CCC1(c2ccccc2)NC(=O)N(C)C1=O (stereo not given) [Mephenytoin] | 99.8 ± 24% | –
CC1(C)[C@H](C(=O)O)N2C(=O)C[C@H]2S1(=O)=O [Sulbactam] | 92.7 ± 3.5% | –
COc1cc2c3cc1Oc1cc(ccc1O)C[C@@H]1c4c(cc(OC)c(O)c4Oc4ccc(cc4)C[C@@H]3N(C)CC2)CC[N+]1(C)C | 82.2% | –
Cc1ncc(CO)c(CO)c1O [Pyridoxine hydrochloride] | 103% | –
Cc1ncc(CO)c(CO)c1O | 84.2% | –
CN1CCc2cc(Cl)c(O)cc2[C@@H](c2ccccc2)C1 | 79.2 ± 8.7% | –
Nc1ccc(N2C(=O)c3ccccc3C2=O)c(Cl)c1 [N-(4-Amino-2-chlorophenyl)phthalimide] | 109% | –
C#C[C@]1(OC(C)=O)CC[C@H]2[C@@H]3CCC4=CC(=NO)CC[C@@H]4[C@H]3CC[C@@]21CC (mixture of isomers) [Norgestimate] | 83.5% | –
C#C[C@]1(OC(C)=O)CC[C@H]2[C@@H]3CCC4=CC(=NO)CC[C@@H]4[C@H]3CC[C@@]21CC (mixture of isomers) | 91.9% | –
COc1ccc2cc([C@H](C)CO)ccc2c1 | 89.6% | –
CC(=O)O[C@]1(C(C)=O)CC[C@H]2[C@@H]3C=C(Cl)C4=CC(=O)[C@@H]5C[C@@H]5[C@]4(C)[C@H]3CC[C@@]21C [Cyproterone acetate] | 118 ± 32% | 77.3
CC(=O)O[C@]1(C(C)=O)CC[C@H]2[C@@H]3C=C(Cl)C4=CC(=O)[C@@H]5C[C@@H]5[C@]4(C)[C@H]3CC[C@@]21C [Cyproterone Acetate] | 82.3% | –
CC(=O)O[C@]1(C(C)=O)CC[C@H]2[C@@H]3C=C(Cl)C4=CC(=O)[C@@H]5C[C@@H]5[C@]4(C)[C@H]3CC[C@@]21C | 71.1% | –
O=C(O)C1CCCN(CCC=C(c2ccccc2)c2ccccc2)C1 (stereo not given) | 100% | –
Clc1ccc(CO/N=C(\Cn2ccnc2)c2ccc(Cl)cc2Cl)c(Cl)c1 [Oxiconazole Nitrate] | 74.1% | –
Clc1ccc(CO/N=C(\Cn2ccnc2)c2ccc(Cl)cc2Cl)c(Cl)c1 [Oxiconazole] | 54.9% | –
Clc1ccc(CO/N=C(\Cn2ccnc2)c2ccc(Cl)cc2Cl)c(Cl)c1 | 99.2 ± 1.9% | –
CCCCC(CC)CCC(CC(C)C)OS(=O)(=O)O (stereo not given) | 65.3% | –

Copied from the list.
In HMGB1-induced TNF-alpha production (compound concentration: 3 uM), Nc1ccc(N2C(=O)c3ccccc3C2=O)c(Cl)c1 [N-(4-Amino-2-chlorophenyl)phthalimide] shows 109%
In HMGB1-induced TNF-alpha production (compound concentration: 3 uM), Clc1ccc(CO/N=C(\Cn2ccnc2)c2ccc(Cl)cc2Cl)c(Cl)c1 [Oxiconazole] shows 54.9%
In HMGB1-induced TNF-alpha production (compound concentration: 3 uM), CCc1c(C)[nH]c2c1C(=O)C(CN1CCOCC1)CC2 (stereo not given) [Molindone hydrochloride] shows 106 ± 3.8%
In HMGB1-induced TNF-alpha production (compound concentration: 3 uM), Clc1ccc(CO/N=C(\Cn2ccnc2)c2ccc(Cl)cc2Cl)c(Cl)c1 shows 99.2 ± 1.9%

(next part)

Compound | HMGB1-induced TNF-alpha production (compound concentration: 3 uM) | HMGB1-induced TNF-alpha production [1] [%]
O=C(O)COCCN1CCN(C(c2ccccc2)c2ccc(Cl)cc2)CC1 (stereo not given) | 77.2% | –
O=C(O)COCCN1CCN(C(c2ccccc2)c2ccc(Cl)cc2)CC1 (stereo not given) [Cetirizine dihydrochloride] | 73.3 ± 16% | –
N[C@@H]1CONC1=O [D-cycloserine] | 129% | –
N[C@@H]1CONC1=O [D-Cycloserine] | 90.9% | –
OCC1OC(n2cnc3c(NC4CCCCC4)ncnc32)C(O)C1O (stereo not given) [N6-Cyclohexyladenosine] | 81.9% | –
N[C@@H](Cc1c[nH]c2ccc(O)cc12)C(=O)O [Oxitriptan; L-5-Hydroxytryptophan;] | – | 85.5
N[C@@H](Cc1c[nH]c2ccc(O)cc12)C(=O)O [5-Hydroxy-L-tryptophan] | 96.6% | –
CCCCCCCCCCCCCCCC(=O)OC[C@@H](NC(=O)C(Cl)Cl)[C@H](O)c1ccc([N+](=O)[O-])cc1 | 84% | –
CC(Cc1ccccc1)(NC(=O)CN)c1ccccc1 (racemic) | 101% | –
COc1cc2nc(N(C)CCCNC(=O)C3CCCO3)nc(N)c2cc1OC (stereo not given) [Alfuzosin hydrochloride] | 87.9 ± 2.6% | –
COc1cc2nc(N(C)CCCNC(=O)C3CCCO3)nc(N)c2cc1OC (stereo not given) | 114% and 105% | –
Clc1ccc(Cn2c(CN3CCCC3)nc3ccccc32)cc1 | 80.6% | –
Clc1ccc(Cn2c(CN3CCCC3)nc3ccccc32)cc1 [Clemizole hydrochloride] | 70.3 ± 3.8% | –
O=C(O)/C=C/c1ccc(O)c(O)c1 [Caffeic Acid] | 80.1% | –
O=C(O)/C=C/c1ccc(O)c(O)c1 [Caffeic acid] | 117% | 77.6
NCCCC(O)(P(=O)(O)O)P(=O)(O)O | 93.3 ± 5.2% | –
NCCCC(O)(P(=O)(O)O)P(=O)(O)O [Alendronate] | 98.8% | –
NCCCC(O)(P(=O)(O)O)P(=O)(O)O [Alendronate sodium] | 103% | –
CNC[C@H](O)[C@@H](O)[C@H](O)[C@H](O)CO [Meglumine] | 106.1 ± 0.43% | –
Nc1ccc(S(=O)(=O)Nc2cnc3ccccc3n2)cc1 | 79.5% | –
Nc1ccc(S(=O)(=O)Nc2cnc3ccccc3n2)cc1 [Sulfaquinoxaline sodium salt] | 98.5% | –
COC(=O)N[C@H](C(=O)N[C@@H](Cc1ccccc1)[C@@H](O)CN(Cc1ccc(-c2ccccn2)cc1)NC(=O)[C@@H](NC(=O)OC)C(C)(C)C)C(C)(C)C [Atazanavir] | 94.4% | –
N.N.O=C([O-])C[O-].[Pt+2] [Nedaplatin] | 116% | –
CCCCCCCCCC[Si](C)(C)CCC(=O)NC(Cc1ccc(C)cc1)c1ccccc1 (stereo not given) [Sandoz 58-035] | 99.3% | –
OC[C@H]1O[C@@H](n2cnc3c(NCc4ccccc4)ncnc32)[C@H](O)[C@@H]1O [6-Benzylaminopurine riboside] | – | 77.5
COc1ccc(C[C@H](N)C(=O)N[C@H]2[C@@H](O)[C@H](n3cnc4c(N(C)C)ncnc43)O[C@@H]2CO)cc1 | 84.6% | –

Compound | HMGB1-induced TNF-alpha production (compound concentration: 3 uM) | HMGB1-induced TNF-alpha production [1] [%]
COc1ccc(C[C@H](N)C(=O)N[C@H]2[C@@H](O)[C@H](n3cnc4c(N(C)C)ncnc43)O[C@@H]2CO)cc1 [Puromycin] | 108% | –
CCCCC/C=C/CCC(=O)N[C@H]1[C@H](Oc2c3cc4cc2Oc2ccc(cc2Cl)[C@@H](O[C@@H]2O[C@H](CO)[C@@H](O)[C@H](O)[C@H]2NC(C)=O)[C@@H]2NC(=O)[C@H](NC(=O)[C@@H]4NC(=O)[C@H]4NC(=O)C(Cc5ccc(c(Cl)c5)O3)NC(=O)[C@H](N)c3ccc(O)c(c3)Oc3cc(O)cc4c3)c3ccc(O)c(c3)-c3c(OC4O[C@H](CO)[C@@H](O)[C@H](O)[C@@H]4O)cc(O)cc3[C@@H](C(=O)O)NC2=O)O[C@H](CO)[C@@H](O)[C@@H]1O (stereo not given in full) [TEICOPLANIN [A(2-1) shown]] | 101% | –
[O-][n+]1cccc(CO)c1 | 91.1% | –
COCc1nc2c([nH]1)c(=O)n(C)c(=O)n2CC(C)C [8-Methoxymethyl-3-isobutyl-1-methylxanthine] | 106% | –
C[C@H]1NC(=O)NC1=O [Methylhydantoin-5-(D)] | 110% | –
Cc1ccnc(NS(=O)(=O)c2ccc(N)cc2)n1 | 93.5% | –
Cc1ccnc(NS(=O)(=O)c2ccc(N)cc2)n1 [Sulfamerazine] | 106% | –
NC(=O)OCC(COC(N)=O)c1ccccc1 [Felbamate] | 89.8 ± 10% | –
CCC[S+]([O-])c1ccc2[nH]c(NC(=O)OC)nc2c1 (stereo not given) [Ricobendazole] | 86.2% | –
O=c1c(O)c(-c2ccccc2)oc2cccc(O)c12 [3,5-Dihydroxyflavone] | – | 49.4
CCCCS(=N)(=O)CCC(N)C(=O)O (racemic) [DL-Buthionine-[S,R]-sulfoximine] | 103% | –
N=C(N)NCc1cccc(I)c1 [Iobenguane sulfate] | 78.6% | –
CC(C)n1c(/C=C/C(O)CC(O)CC(=O)O)c(-c2ccc(F)cc2)c2ccccc21 (stereo not given) [Fluvastatin] | 168% | –
CC(C)n1c(/C=C/C(O)CC(O)CC(=O)O)c(-c2ccc(F)cc2)c2ccccc21 (stereo not given) | 127% | –
CC(C)n1c(/C=C/C(O)CC(O)CC(=O)O)c(-c2ccc(F)cc2)c2ccccc21 (stereo not given) [Fluvastatin sodium salt] | 162% | –
O=c1ccn([C@@H]2O[C@H](CO)[C@@H](O)[C@H]2O)c(=O)[nH]1 [Uridine;  1-beta-D-Ribofuranosyluracil] | – | 69.6
CC(C)(C)c1ccc(C(=O)CCCN2CCC(OC(c3ccccc3)c3ccccc3)CC2)cc1 [Ebastine] | 82.6% | –
CCCCCC(O)c1cccc(OCc2ccc3ccccc3n2)c1 (stereo not given) | 93% | –
CCCCNc1cc(C(=O)O)cc(S(N)(=O)=O)c1Oc1ccccc1 | 88.5% | –
CCCCNc1cc(C(=O)O)cc(S(N)(=O)=O)c1Oc1ccccc1 [Bumetanide] | 96.2 ± 22% | –
CNC(=O)c1c(I)c(C(=O)NCC(=O)Nc2c(I)c(C(=O)O)c(I)c(C(=O)NCCO)c2I)c(I)c(N(C)C(C)=O)c1I [Ioxaglic acid] | 141% | –
CC(=O)Oc1ccccc1C(=O)Oc1ccccc1C(=O)O [Acetylsalicylsalicylic acid] | 71.2% | –
O=c1ncc(F)c[nH]1 [5-fluoro-2-pyrimidone] | 107% | –
CCN(CC)CCOC(=O)c1ccc(N)cc1 [Procaine hydrochloride] | 87.5 ± 27% | –
CCN(CC)CCOC(=O)c1ccc(N)cc1 | 88.6% | –
Cn1ccnc1 [1-Methylimidazole] | 107% | –

— the supplement of paper PMC3682954
